Test results reported in paper PMC3466213, “Discovery of Novel Orally Active Anti-Inflammatory N-Phenylpyrazolyl-N-Glycinyl-Hydrazone Derivatives That Inhibit TNF-α Production” (PLoS ONE, 2012).

System: TNF-α production
Experiment: LPS-induced TNF-α production in culture of mice peritoneal macrophage (ELISA)
Type: cell-based
Conditions: mouse peritoneal macrophages, at least five concentrations, range tested in parentheses, read-out: TNF-α Inhibition IC50
Description: We initially investigated the capacity of our N-acylhydrazone derivatives 4a–g to inhibit TNF-α production in vitro [21]. The p38 MAPK inhibitor SB-203580 (1) was chosen as a standard. As depicted in Table 2, six NAH compounds 4a, 4b, 4c, 4d, 4f and 4g inhibited the in vitro LPS-induced production of TNF-α in cultured mouse peritoneal macrophages at a concentration of 10 µM.
BALBc mice were stimulated with thyoglicollate 3% (1 mL/mice; i.p.) and 3 days later the peritoneal cavity were washed with RPMI 1640 and the peritoneal macrophages were plated onto 96-wells plate (30.000 cells/well) for 1 hour at 37°C in an humidified 5% CO2 atmophere. Then, macrophages were incubated with the vehicle or compounds and 1 hour later stimulated with LPS (100 ng/mL) for 24 hour when the supernatants were collected to evaluate TNF-α production by ELISA kit (BD Bioscience).

## C[S+]([O-])c1ccc(-c2nc(-c3ccncc3)c(-c3ccc(F)cc3)[nH]2)cc1 (stereo not shown) [SB-203580 (1), SB-203580, reference compound]
  IC50: 220 nM
